In PubChem BioAssay AID256 (DTP/NCI, 2004):
The list does not hold the whole screen: it is rich in T/C values a quarter to a half above the control, in often repeated tests (any T/C) and in doses without a T/C. Further doses and runs are listed elsewhere. T/C gives the treated animals as a percentage of the vehicle group. Some doses have a count of surviving animals in place of a T/C: the source holds a T/C of zero for them, seemingly a mark for toxic or unscored doses. Some survivor counts are full or nearly so, which does not show that the dose was tolerated: the source hardly ever lists a survival T/C far under the control, and the zero likely stands for such cases as well. Survivors were counted at the toxicity check, usually on the fifth day, unless a day is given; later deaths do not show. Schedule codes are those of the source, read here as Q, the interval in days (D) or hours (H), X, the number of doses. Some entries were tested several times; their values stand side by side, smallest first. Where survival is the endpoint, this PubChem deposit counts one and a half times the control or more as active, and values a quarter to a half above the control carry no call in these data; other NCI protocols may use other cut-offs. Some T/C values are followed by the survivors on the day toxicity was checked, most often the fifth; where none is given, no animal had died by that day.

Tested on: CD2F1 mice, L1210 leukemia ip, survival T/C
Experiment: NCI In Vivo Anticancer Drug Screen. Data for tumor model L1210 Leukemia (intraperitoneal) in CD2F1 (CDF1) mice
Settings: higher T/C = longer survival
Procedure, shortened: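 Mice carrying a transplanted tumor received test compound or vehicle alone. The value is the measurement in the treated group divided by that in the vehicle-treated control group.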

[1] = T/C endpoint: mean survival time, dose: 10.0 mg/kg/injection, schedule: Q04DX003 (ip), vehicle: saline
[2] = T/C endpoint: mean survival time, dose: 400.0 mg/kg/injection, schedule: Q04DX003 (ip), vehicle: saline with Tween-80
[3] = T/C endpoint: mean survival time, dose: 300.0 mg/kg/injection, schedule: Q01DX001 (ip), vehicle: other
[4] = T/C endpoint: mean survival time, dose: 100.0 mg/kg/injection, schedule: Q04DX003 (ip), vehicle: saline with Tween-80
[5] = T/C endpoint: mean survival time, dose: 200.0 mg/kg/injection, schedule: Q04DX003 (ip), vehicle: saline with Tween-80
[6] = T/C endpoint: mean survival time, dose: 100.0 mg/kg/injection, schedule: Q01DX009 (ip), vehicle: saline
[7] = T/C endpoint: mean survival time, dose: 200.0 mg/kg/injection, schedule: Q01DX009 (ip), vehicle: saline
[8] = T/C endpoint: mean survival time, dose: 400.0 mg/kg/injection, schedule: Q01DX009 (ip), vehicle: saline
[9] = T/C endpoint: mean survival time, dose: 200.0 mg/kg/injection, schedule: Q01DX009 (ip), vehicle: saline with Tween-80
[10] = T/C endpoint: mean survival time, dose: 400.0 mg/kg/injection, schedule: Q01DX009 (ip), vehicle: saline with Tween-80
[11] = T/C endpoint: mean survival time, dose: 400.0 mg/kg/injection, schedule: Q04DX002 (ip), vehicle: saline with Tween-80
[12] = T/C endpoint: mean survival time, dose: 100.0 mg/kg/injection, schedule: Q04DX002 (ip), vehicle: saline with Tween-80
[13] = T/C endpoint: mean survival time, dose: 200.0 mg/kg/injection, schedule: Q04DX002 (ip), vehicle: saline with Tween-80
[14] = T/C endpoint: mean survival time, dose: 100.0 mg/kg/injection, schedule: Q04DX003 (ip), vehicle: saline
[15] = T/C endpoint: mean survival time, dose: 200.0 mg/kg/injection, schedule: Q04DX003 (ip), vehicle: saline
[16] = T/C endpoint: mean survival time, dose: 400.0 mg/kg/injection, schedule: Q04DX003 (ip), vehicle: saline

Structure (SMILES): CN(N=O)C(N)=O
- T/C (T/C endpoint: mean survival time, dose: 5.0 mg/kg/injection, schedule: Q01DX007 (ip), vehicle: saline): 141 % of control
- T/C (T/C endpoint: mean survival time, dose: 5.0 mg/kg/injection, schedule: Q01DX009 (ip), vehicle: saline): 141 % of control
- T/C (T/C endpoint: mean survival time, dose: 10.0 mg/kg/injection, schedule: Q03DX003 (ip), vehicle: saline): 126 % of control
- T/C [1]: 125 % of control
- T/C (T/C endpoint: mean survival time, dose: 20.0 mg/kg/injection, schedule: Q01DX009 (ip), vehicle: saline): 133 % of control [5 of 6 alive]
- T/C (T/C endpoint: mean survival time, dose: 20.0 mg/kg/injection, schedule: Q04DX003 (ip), vehicle: saline): 142 % of control
- T/C (T/C endpoint: median survival time, dose: 3.0 mg/kg/injection, schedule: Q01DX009 (ip), vehicle: saline + alcohol): 130 % of control
- T/C (T/C endpoint: median survival time, dose: 6.0 mg/kg/injection, schedule: Q01DX009 (ip), vehicle: saline + alcohol): 148 % of control
- T/C (T/C endpoint: median survival time, dose: 21.6 mg/kg/injection, schedule: Q04DX003 (ip), vehicle: saline + alcohol): 130 % of control
- T/C (T/C endpoint: median survival time, dose: 24.0 mg/kg/injection, schedule: Q04DX003 (ip), vehicle: saline): 130 % of control
- T/C (T/C endpoint: median survival time, dose: 25.0 mg/kg/injection, schedule: Q01DX009 (ip), vehicle: saline + alcohol): 148 % of control [5 of 6 alive]

Structure (SMILES): CCc1ccc2c(c1)N(CCCN(CCCl)CCCl)c1ccccc1S2
- survivor count (T/C endpoint: mean survival time, dose: 90.0 mg/kg/injection, schedule: Q01DX001 (ip), vehicle: saline with Tween-80): 3 of 6
- survivor count (T/C endpoint: mean survival time, dose: 135.0 mg/kg/injection, schedule: Q01DX001 (ip), vehicle: saline with Tween-80): 2 of 6

Structure (SMILES): COc1ccc(CNCCCC2C3CCC(C3)C2CN)cc1 (centres undefined)
- survivor count [2]: 6 of 6

Structure (SMILES): O=C1CSC(=S)N1/N=C/c1cc(Cl)cc(Cl)c1O
- survivor count [3]: 0 of 6

Structure (SMILES): O=C(NC(CSC(c1ccc(Cl)cc1)c1ccc(Cl)cc1)C(=O)O)OCc1ccccc1 (centres undefined)
- survivor count (T/C endpoint: mean survival time, dose: 150.0 mg/kg/injection, schedule: Q01DX001 (ip), vehicle: saline): 2 of 6

Structure (SMILES): OC1(c2ccccc2)c2cscc2C(O)(c2ccccc2)c2c(Cl)sc(Cl)c21 (centres undefined)
- survivor count (T/C endpoint: mean survival time, dose: 50.0 mg/kg/injection, schedule: Q01DX001 (ip), vehicle: saline with Tween-80): 3 of 3
- survivor count (T/C endpoint: mean survival time, dose: 100.0 mg/kg/injection, schedule: Q01DX001 (ip), vehicle: saline with Tween-80): 3 of 3

Structure (SMILES): N#CC1=C(C#N)C(=O)c2ccccc2C1=O
- survivor count [4]: 6 of 6
- survivor count [5]: 5 of 6
- survivor count [2]: 4 of 6

Structure (SMILES): O=C1C(Sc2ccc3ccccc3c2)=C(Sc2ccc3ccccc3c2)C(=O)c2ccccc21
- survivor count [4]: 5 of 6

Structure (SMILES): CCOC(=O)c1c2c3c(c(Br)ccc3n(C)c1=O)C(=O)c1ccccc1-2
- survivor count [6]: 6 of 6
- survivor count [7]: 1 of 6
- survivor count [8]: 0 of 6

Structure (SMILES): CCOC(=O)Nc1cc2c(c(N)n1)N=C(c1ccc(-c3ccccc3)cc1)CN2
- T/C (T/C endpoint: mean survival time, dose: 25.0 mg/kg/injection, schedule: Q01DX001 (ip), vehicle: Klucel (hydroxypropylcellulose) (HPC)): 136 % of control
- survivor count (T/C endpoint: mean survival time, dose: 100.0 mg/kg/injection, schedule: Q01DX001 (ip), vehicle: Klucel (hydroxypropylcellulose) (HPC)): 1 of 6

Structure (SMILES): CCOC(=O)NNC(=O)OCC
- survivor count (T/C endpoint: mean survival time, dose: 100.0 mg/kg/injection, schedule: Q01DX009 (ip), vehicle: saline with Tween-80): 3 of 6
- survivor count [9]: 0 of 6
- survivor count [10]: 0 of 6

Structure (SMILES): CC(=O)NNC(=O)CC(O)(c1ccccc1)c1ccccc1
- survivor count [11]: 3 of 3

Structure (SMILES): CN=C([Se])NC
- survivor count (T/C endpoint: mean survival time, dose: 50.0 mg/kg/injection, schedule: Q04DX002 (ip), vehicle: saline with Tween-80): 0 of 3
- survivor count [12]: 0 of 3
- survivor count [13]: 0 of 3
- survivor count [11]: 0 of 3

Structure (SMILES): O=C1CN(CCN2CC(=O)N(CN3CCOCC3)C(=O)C2)CC(=O)N1CN1CCOCC1
- T/C (T/C endpoint: median survival time, dose: 25.0 mg/kg/injection, schedule: Q01DX009 (ip), vehicle: water): 138 % of control
- T/C (T/C endpoint: median survival time, dose: 50.0 mg/kg/injection, schedule: Q01DX009 (ip), vehicle: water): 136 % of control
- survivor count (T/C endpoint: median survival time, dose: 400.0 mg/kg/injection, schedule: Q01DX009 (ip), vehicle: water): 0 of 6

Structure (SMILES): CS(=O)(=O)CC#N
- survivor count (T/C endpoint: mean survival time, dose: 50.0 mg/kg/injection, schedule: Q01DX009 (ip), vehicle: saline): 2 of 6 and 2 of 3
- survivor count (T/C endpoint: mean survival time, dose: 50.0 mg/kg/injection, schedule: Q04DX002 (ip), vehicle: saline): 1 of 3
- survivor count (T/C endpoint: mean survival time, dose: 50.0 mg/kg/injection, schedule: Q04DX003 (ip), vehicle: saline with Tween-80): 4 of 6
- survivor count [12]: 4 of 6
- survivor count (T/C endpoint: mean survival time, dose: 100.0 mg/kg/injection, schedule: Q04DX002 (ip), vehicle: saline): 0 of 3 and 0 of 6
- survivor count [13]: 0 of 6
- survivor count [11]: 0 of 6

Structure (SMILES): COc1ccc2[nH]cc(CN(C)C)c2c1
- T/C (T/C endpoint: mean survival time, dose: 50.0 mg/kg/injection, schedule: Q01DX009 (ip), vehicle: saline with Tween-80): 128 % of control
- survivor count (T/C endpoint: mean survival time, dose: 75.0 mg/kg/injection, schedule: Q01DX009 (ip), vehicle: saline with Tween-80): 0 of 6
- survivor count [5]: 1 of 6
- survivor count [2]: 0 of 6

Structure (SMILES): c1ccc(CNCCCNCc2ccccn2)nc1
- survivor count (T/C endpoint: mean survival time, dose: 400.0 mg/kg/injection, schedule: Q01DX001 (ip), vehicle: saline): 0 of 6

Structure (SMILES): COc1nc(-c2ccncc2)nc(N(C)C)n1
- survivor count (T/C endpoint: mean survival time, dose: 18.0 mg/kg/injection, schedule: Q04DX002 (ip), vehicle: saline): 1 of 3
- survivor count (T/C endpoint: mean survival time, dose: 25.0 mg/kg/injection, schedule: Q01DX002 (ip), vehicle: saline): 0 of 3
- survivor count (T/C endpoint: mean survival time, dose: 50.0 mg/kg/injection, schedule: Q01DX002 (ip), vehicle: saline): 0 of 3
- survivor count (T/C endpoint: mean survival time, dose: 100.0 mg/kg/injection, schedule: Q01DX002 (ip), vehicle: saline): 0 of 3

Structure (SMILES): C1=Cc2ccccc2/C1=C/c1cccc(/C=C2\C=Cc3ccccc32)c1
- survivor count [4]: 6 of 6
- survivor count [5]: 6 of 6
- survivor count [2]: 6 of 6

Structure (SMILES): COc1ccc2c(c1)CNC1c3cc(OC)c(O)cc3CC21 (centres undefined)
- survivor count [4]: 2 of 6
- survivor count (T/C endpoint: mean survival time, dose: 150.0 mg/kg/injection, schedule: Q04DX003 (ip), vehicle: saline with Tween-80): 1 of 6

Structure (SMILES): NC(CSC(c1ccccc1)(c1ccccc1)c1ccc(F)cc1)C(=O)O (centres undefined)
- T/C [6]: 130 % of control
- survivor count [7]: 3 of 6
- survivor count [8]: 0 of 6

Structure (SMILES): Cc1ccccc1S(=O)(=O)F
- survivor count [9]: 0 of 6
- survivor count [2]: 0 of 6

Structure (SMILES): OCCN1CCN(CCCN2c3ccccc3Sc3ccc(C(F)(F)F)cc32)CC1
- T/C [1]: 125 % of control
- T/C (T/C endpoint: mean survival time, dose: 15.0 mg/kg/injection, schedule: Q04DX003 (ip), vehicle: saline sonified): 125 % of control
- survivor count (T/C endpoint: mean survival time, dose: 60.0 mg/kg/injection, schedule: Q04DX003 (ip), vehicle: saline): 10 of 10
- survivor count [14]: 0 of 6
- survivor count [15]: 0 of 6
- survivor count [16]: 0 of 6

Structure (SMILES): CCCN(CCC)C(=O)[S-].CCCN(CCC)C(=O)[S-].[Ni+2]
- survivor count [4]: 1 of 6
- survivor count [5]: 0 of 6
- survivor count [2]: 0 of 6

Structure (SMILES): C[n+]1ccccc1/C=C/c1cccc(O)c1
- survivor count (T/C endpoint: mean survival time, dose: 75.0 mg/kg/injection, schedule: Q01DX001 (ip), vehicle: other): 0 of 6
- survivor count (T/C endpoint: mean survival time, dose: 150.0 mg/kg/injection, schedule: Q01DX001 (ip), vehicle: other): 0 of 6
- survivor count [3]: 0 of 6

Structure (SMILES): NC(CSC1(c2ccc(Cl)cc2)c2ccccc2-c2ccccc21)C(=O)O (centres undefined)
- survivor count [7]: 2 of 6
- survivor count [8]: 0 of 6

Structure (SMILES): O=C(O)c1ccc(P(=O)(O)O)cc1[N+](=O)[O-]
- survivor count [6]: 6 of 6

Structure (SMILES): Cc1ccncc1C1CCCN1C (centres undefined)
- survivor count [14]: 3 of 3
- survivor count [15]: 1 of 3
- survivor count [16]: 0 of 3

Structure (SMILES): N#CC(=C1C=CC(=NO)C=C1)c1ccccc1
- survivor count [2]: 5 of 6

Structure (SMILES): Cc1ccc(N=C(N)NC#N)cc1C
- survivor count [10]: 6 of 6
